Here are results for 59 compounds from PubChem BioAssay AID2685 (National Center for Advancing Translational Sciences (NCATS), 2010).

The other results are listed elsewhere or left out. These are further read-outs of the screen, such as a control signal, another cell line or another target. No call is given for them. The list favours compounds with an active or inconclusive main result. Potencies come from curve fits of mixed quality, noted in brackets.

A short description of the assay: qHTS Assay for Lipid Storage Modulators in Drosophila S3 Cells.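 On cell number change: cells counted by Cell Tracker Red CMTPX staining in the red channel.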 The settings on record: BODIPY lipid droplet fluorescence, 18-24 h; for cell number change: measured here: cell count max response, cells fed with added oleic acid. The method, boiled down: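 Laser-scanning cytometry quantifies lipid droplet accumulation (500–530 nm total intensity; droplet/cell object ratio) in oleic acid-fed (400 uM added) Drosophila S3 cells treated with a concentration series. 20 uM Triacsin C defined 100% inhibition.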

Where [1] appears, read: measured here: lipid fluorescence (Fed channel) AC50, cells fed with added oleic acid.
[2] abbreviates: measured here: cell number channel AC50, cells fed with added oleic acid.

Regarding `CC(C)(C#N)NC(=O)C1CCCN1S(=O)(=O)c1ccc2ccccc2c1` (configuration not stated), the cell number change was 15.1%. For the same compound, the concentration at half-maximal activity (AC50) under setting [1] was 6.51 µM [falling, single point].

With `CCN1C(=O)CC(n2c(C)nc3ccccc32)C1=O` (configuration not stated), the cell number change was -12%. For `O=C(CCn1ccnc1)Nc1nc2ccccc2[nH]1`, the half-maximal activity concentration (AC50) was 0.146 µM [rising, full curve, poor fit] under setting [2] and 0.517 µM [rising, single point] under setting [1]. As to `Cc1ccc(C(=O)NCC(=O)OCc2csc(-c3ccccc3)n2)cc1`, the cell number change was -22.2%. Also, the AC50 under setting [2] was 0.326 µM [falling, full curve, poor fit]. With `CCOC(=O)c1c(NC(=O)c2ccc(Br)o2)sc2c1CCCC2`, the cell number change came to 9.03%. Further, under setting [2], the AC50 is 0.58 µM [falling, full curve, poor fit]. Further, the AC50 under setting [1] was 0.146 µM [rising, full curve, poor fit]. Regarding `COc1ccc(C(=O)/C=C/c2ccc(OC)c(CN3CCOCC3)c2)cc1`, the cell number change is -25.7%. Further, the AC50 under setting [1] is 20.6 µM [falling, single point].

Regarding `O=S1(=O)Nc2c(ccc3cccnc23)-c2ccccc21`, the cell number change is -21.8%. The AC50 under setting [1] is 16.4 µM [falling, single point]. For the compound `COc1ccc(-c2[nH]ncc2/C=N\NS(=O)(=O)c2ccccc2)cc1OC`, the cell number change was 133%. For the compound `Cc1ccc(-c2csc(-c3c[nH]c4ccccc34)n2)c(C)c1`, the cell number change was -37%. Moreover, the AC50 under setting [2] was 13 µM [falling, partial curve]. Besides, the AC50 under setting [1] is 1.3 µM [rising, full curve]. On to `COC(=O)c1ccc(OC(=O)c2ccc(OC)cc2)c(OC)c1`, for which the cell number change was 8.51%.

Consider `CCCCN(NC(C)=O)c1nc(Cl)nc(NC(C)C)n1`, for which the cell number change is -0.804%. Moreover, the AC50 under setting [2] is 0.0206 µM [falling, full curve, poor fit].

As for `COc1ccc(-c2ccc3c(c2)S(=O)(=O)c2cccc(C(=O)NC4CC4)c2C3=O)cc1OC`, the cell number change is -39.8%. For the same compound, the AC50 under setting [2] was 2.06 µM [falling, partial curve]. `Cc1n[nH]c(=O)nc1NCC1CCCO1` (configuration not stated): the cell number change was -0.853%. `C=CCn1c(=S)[nH]c2scc(-c3ccc(C)o3)c2c1=O`: the cell number change was -7.08%. Further, the half-maximal activity concentration (AC50) under setting [1] was 0.116 µM [falling, full curve, poor fit]. With `O=C(O)c1ccccc1C(=O)NCCc1c(C(=O)O)[nH]c2ccc(Cl)cc12`, the cell number change is 15.7%. The AC50 under setting [1] is 0.82 µM [rising, full curve].

`CCC(=O)Nc1nc(OC)cc(OC)n1`: the cell number change worked out at 8.83%. Moreover, the AC50 under setting [1] is 0.517 µM [falling, full curve, poor fit]. Turning to `COc1ccc(CC(=O)Oc2ccc(F)cc2)cc1`, the cell number change is 6.88%. Further, the AC50 under setting [1] was 0.092 µM [rising, full curve, poor fit]. `Cc1ccc(S(=O)(=O)Nc2ccc3c(c2)CCC3)cc1`: the cell number change was -45.2%. Further, under setting [2], the AC50 is 23.1 µM [falling, partial curve]. Also, the concentration at half-maximal activity (AC50) under setting [1] is 25.9 µM [falling, partial curve].

Consider `COc1ccccc1NS(=O)(=O)c1ccc(O)c(C(=O)OCC(=O)c2ccc(Cl)cc2Cl)c1`, for which the cell number change was -1.89%. In the case of `COc1ccc(CCNCC(=O)Nc2ccc(OC(F)F)cc2)cc1`, the cell number change is -3.17%. The AC50 under setting [1] is 29.1 µM [rising, single point]. As for `COc1cc2[nH]c(=S)n(Cc3ccc(C)cc3)c(=O)c2cc1OC`, the cell number change is -62.5%. The AC50 under setting [2] was 29.1 µM [falling, single point]. Further, the AC50 under setting [1] is 23.1 µM [falling, single point]. Take `Cc1nn(Cc2ccccc2Cl)c(C)c1C(=O)NCC(c1cccs1)N1CCOCC1` (configuration not stated): under setting [2], the AC50 is 3.66 µM [rising, partial curve]. Turning to `COc1ccccc1NC(=S)N1CCN(c2ccccn2)CC1`, the cell number change turned out to be 9.51%. Also, the AC50 under setting [1] was 0.411 µM [rising, full curve, poor fit]. `O=C(O)C1CCC(Cn2c(SCc3cc(=O)n4cc(Br)ccc4n3)nc3ccsc3c2=O)CC1` (configuration not stated): the cell number change is -3.36%. Moreover, the AC50 under setting [1] was 1.16 µM [rising, single point].

Take `CC(=O)Nc1ccc(NC(=O)CSc2ccc(-c3ccc(-n4ccnc4)cc3)nn2)cc1`: the cell number change is -47.1%. The AC50 under setting [2] is 29.1 µM [falling, single point].

On to `O=C(CNC(=S)N(Cc1ccccc1F)C1CCCCC1)NCC1CCCO1` (configuration not stated), for which the cell number change is -6.07%. For the same compound, the half-maximal activity concentration (AC50) under setting [2] was 0.13 µM [falling, full curve, poor fit]. In addition, the concentration at half-maximal activity (AC50) under setting [1] is 0.651 µM [falling, single point].

Turning to `CC(C(=O)NCCN1C(=O)S/C(=C\c2cccs2)C1=O)N1C(=O)c2ccccc2C1=O` (configuration not stated), the cell number change was -13.8%. Further, the half-maximal activity concentration (AC50) under setting [1] was 10.3 µM [falling, partial curve, poor fit].

On to `COC(=O)c1nnn(-c2nonc2N)c1CSc1nc2ccccc2s1`, for which the cell number change is -3.44%. For `CC(C)Oc1ccc(C2CC(=O)N(C)C2=O)cc1` (configuration not stated), the cell number change was found to be 14.2%. Moreover, the AC50 under setting [1] was 0.164 µM [rising, full curve, poor fit]. With `COc1ccc(OCc2cc(C(=O)N3CCCCCC3)no2)c(Cl)c1`, the cell number change came out at 20.2%. On to `COc1ccc(C=O)cc1COc1c(F)c(F)cc(F)c1F`, for which the cell number change was -38.9%. In addition, under setting [2], the AC50 was 0.731 µM [falling, full curve]. Also, the concentration at half-maximal activity (AC50) under setting [1] is 1.84 µM [falling, partial curve]. For `CCCCOC(=O)CCn1c(=S)oc2ccccc21`, the cell number change was -41.5%. Moreover, under setting [2], the AC50 was 29.1 µM [falling, single point]. Further, the concentration at half-maximal activity (AC50) under setting [1] is 0.206 µM [falling, full curve, poor fit].

Take `CSc1ccccc1NC(=O)CN(C)CC(=O)Nc1cccc(Br)c1`: the AC50 by setting is: under setting [2], 6.51 µM [rising, single point]; under setting [1], 3.66 µM [rising, single point].

As for `CCCCn1c(SCC(=O)Nc2ccc3c(c2)CCC3)nc2ccccc2c1=O`, the cell number change was 14.6%. Besides, the AC50 under setting [2] is 4.11 µM [rising, single point]. The AC50 under setting [1] is 5.8 µM [rising, single point]. For `COc1ccc(-c2nn(-c3ccccc3C)cc2CNCc2cccnc2)cc1F`, the cell number change is 8.65%. In addition, the AC50 under setting [1] was 23.1 µM [rising, partial curve]. Turning to `O=[N+]([O-])c1cccc(NNS(=O)(=O)c2ccccc2F)c1`, the cell number change was -14.5%. Still for that read-out and setting: next, `O=C(C1CCCO1)N1CCN(S(=O)(=O)c2cccc3nsnc23)CC1` (configuration not stated): 1.62%; `C[C@@H]1C=CC(=O)O[C@@H]1c1ccc(Cl)cc1`: 7.19%. Take `c1ccc(Cn2nnc3c(Nc4ccc5c(c4)OCO5)nc(C4CC4)nc32)cc1`: the cell number change was -27.2%. The AC50 under setting [1] was 0.082 µM [rising, full curve, poor fit]. Regarding `S=c1[nH]c2cc(-c3ccccc3)ccc2o1`, the AC50 is 0.0326 µM [falling, full curve, poor fit] under setting [2] and 0.0058 µM [falling, full curve, poor fit] under setting [1]. In the case of `O=C(CSc1nccc(=O)[nH]1)N1c2ccccc2CCc2ccccc21`, the cell number change was found to be 7.1%. Under setting [1], the AC50 is 2.06 µM [falling, full curve, poor fit].

Turning to `COc1ccccc1NC(=S)N(CCCN(C)C)Cc1cc2cc3c(cc2[nH]c1=O)OCO3`, the cell number change was -2.6%. Also, the AC50 under setting [1] was 0.103 µM [falling, partial curve, poor fit].

With `COc1cc(CNn2nnnc2N)cc(Br)c1OCC(=O)NC(C)(C)C`, the cell number change came to 22.7%. In addition, the AC50 under setting [1] is 23.1 µM [rising, partial curve].

For `COc1ccc(C=C(c2nc3ccccc3s2)c2nc3ccccc3s2)cc1O`, the cell number change is 150%. Further, the AC50 under setting [2] is 20.6 µM [rising, single point]. Turning to `O=C(c1ccc(N2CCCS2(=O)=O)cc1)N1CCN(c2ccccc2)CC1`, the cell number change was -3.17%. In addition, the AC50 under setting [1] was 18.4 µM [falling, partial curve]. For the compound `COc1ccccc1-c1nc(SCC(=O)NCc2ccco2)c2c(=O)n(C)c(=O)n(C)c2n1`, the cell number change stood at 15%. Also, the AC50 under setting [1] is 1.64 µM [falling, partial curve]. Regarding `COc1cccc(/C=N/N2C(=O)C3C4c5ccccc5C(c5ccccc54)C3C2=O)c1OC` (configuration not stated), the cell number change came out at 32.3%. Moreover, the AC50 under setting [2] was 29.1 µM [rising, single point]. The AC50 under setting [1] is 5.17 µM [rising, partial curve].

`O=C(CSc1ncn[nH]1)c1ccc2c(c1)OCO2`: the AC50 runs as follows: under setting [2], 6.51 µM [rising, single point]; under setting [1], 6.51 µM [rising, single point].

As for `O=C1OCC2=C1C(c1ccc(F)cc1)CC(=O)N2c1ccccc1` (configuration not stated), the cell number change was -20.1%. Regarding `O=C(Nc1ccc(O)c(-c2nc3ccccc3s2)c1)C1=COCCO1`, the cell number change was -10.8%. Moreover, the AC50 under setting [2] is 6.51 µM [rising, single point]. As to `Cc1ccc(CNC(=O)c2ccc(N3CCC4(CC3)CC(c3ccccc3)=NO4)c(NC(=O)c3ccc(Br)cc3)c2)cc1`, the cell number change amounted to 32.3%. Further, the AC50 under setting [2] was 8.2 µM [rising, full curve, poor fit].

Consider `COC(=O)c1ccc2nc(Nc3nc4ccc(F)cc4s3)sc2c1`, for which the cell number change was -34.6%. Also, the AC50 under setting [2] was 29.1 µM [falling, single point]. Moreover, the half-maximal activity concentration (AC50) under setting [1] was 29.1 µM [falling, single point].

For the compound `CCn1c(Cc2cccn2C)nnc1SCC(=O)c1ccc(C)cc1`, the cell number change was -21.5%. The AC50 under setting [1] is 14.6 µM [falling, partial curve, poor fit]. On to `Cc1ccnc(N2CCCC(C(=O)Nc3ccc(C)c(C)c3)C2)n1` (configuration not stated), for which the cell number change is -17.9%. On to `Cc1ccc(S(=O)(=O)N2CCN(C(=O)COC(=O)c3ccc(Cl)nc3)CC2)c(C)c1`, for which the cell number change came out at 0.735%. Moreover, the AC50 under setting [1] was 1.84 µM [rising, full curve].

With `CC(C)Cn1nc(NC(=O)c2ccco2)c2cc3ccccc3nc21`, the cell number change was 17.2%. Moreover, the AC50 under setting [2] is 0.00651 µM [rising, full curve, poor fit]. The AC50 under setting [1] is 2.06 µM [rising, partial curve]. As for `CC(C)c1ccc(NC(=O)C(c2ccccc2)N2CC(=O)Nc3ccccc32)cc1` (configuration not stated), the cell number change is -0.107%. As to `COc1ccc(NC(=O)c2ccc(OC(F)F)cc2)cc1Cl`, the cell number change stood at 31.3%. For the same compound, the AC50 under setting [2] was 10.3 µM [rising, single point]. The AC50 under setting [1] is 14.6 µM [rising, partial curve].

Take `CCc1cccc(C)c1NC(=O)CSc1nc2ccccc2n1CC(=O)N(C)C`: the cell number change was 31.1%. The AC50 under setting [2] is 23.1 µM [rising, single point]. For the same compound, the AC50 under setting [1] is 10.3 µM [rising, single point].

For orientation: AC50 means the concentration at which the activity in the assay is half-maximal.
